Counter-ions that a name gives are not always drawn. The list shows a part of the results. Hit calls seldom repeat between salt and free forms of one compound.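 In K562 cells expressing nanoluciferase-fused kinases, luminescence was recorded at 4 h intervals between 2 and 18 h, normalized as percent of control with DMSO at 100% and a positive control at 0%. A significant (2 sigma) signal drop marks a time point as decreased. The authors' rule for a hit is not shown and takes in more than the number of time points.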
Tests used:
Experiment in all cases: number of time points (of 5) at which kinase-Nluc abundance scored as decreased, DMSO-normalised (count); higher = more persistent destabilization
Settings in all cases: K562; 2-18 h
[1] = target: FLT3 (UniProt P36888)
[2] = target: FYN (UniProt P06241)
[3] = target: GSK3A (UniProt P49840)
[4] = target: HER2 (UniProt P04626)
[5] = target: INSRR (UniProt P14616)
[6] = target: IRAK3 (UniProt Q9Y616)
[7] = target: JAK1 (UniProt P23458)
[8] = target: LCK (UniProt P06239)
[9] = target: LIMK1 (UniProt P53667)
[10] = target: LIMK2 (UniProt P53671)
[11] = target: LMTK2 (UniProt Q8IWU2)
[12] = target: LYN (UniProt P07948)
[13] = target: MAP2K1 (UniProt Q02750)
[14] = target: MAP2K2 (UniProt P36507)
[15] = target: MAP4K2 (UniProt Q12851)
[16] = target: MAPK1 (UniProt P28482)
[17] = target: MAPK4 (UniProt P31152)
[18] = target: MAPKAPK2 (UniProt P49137)
[19] = target: MKNK1 (UniProt Q9BUB5)
[20] = target: NTRK2 (UniProt Q16620)

The chains behind the UniProt entries cited, without tags or fusion partners. Where a name states a change or a piece, a line headed by the entry shows the natural chain unless it says otherwise.
UniProt P36888, whole entry: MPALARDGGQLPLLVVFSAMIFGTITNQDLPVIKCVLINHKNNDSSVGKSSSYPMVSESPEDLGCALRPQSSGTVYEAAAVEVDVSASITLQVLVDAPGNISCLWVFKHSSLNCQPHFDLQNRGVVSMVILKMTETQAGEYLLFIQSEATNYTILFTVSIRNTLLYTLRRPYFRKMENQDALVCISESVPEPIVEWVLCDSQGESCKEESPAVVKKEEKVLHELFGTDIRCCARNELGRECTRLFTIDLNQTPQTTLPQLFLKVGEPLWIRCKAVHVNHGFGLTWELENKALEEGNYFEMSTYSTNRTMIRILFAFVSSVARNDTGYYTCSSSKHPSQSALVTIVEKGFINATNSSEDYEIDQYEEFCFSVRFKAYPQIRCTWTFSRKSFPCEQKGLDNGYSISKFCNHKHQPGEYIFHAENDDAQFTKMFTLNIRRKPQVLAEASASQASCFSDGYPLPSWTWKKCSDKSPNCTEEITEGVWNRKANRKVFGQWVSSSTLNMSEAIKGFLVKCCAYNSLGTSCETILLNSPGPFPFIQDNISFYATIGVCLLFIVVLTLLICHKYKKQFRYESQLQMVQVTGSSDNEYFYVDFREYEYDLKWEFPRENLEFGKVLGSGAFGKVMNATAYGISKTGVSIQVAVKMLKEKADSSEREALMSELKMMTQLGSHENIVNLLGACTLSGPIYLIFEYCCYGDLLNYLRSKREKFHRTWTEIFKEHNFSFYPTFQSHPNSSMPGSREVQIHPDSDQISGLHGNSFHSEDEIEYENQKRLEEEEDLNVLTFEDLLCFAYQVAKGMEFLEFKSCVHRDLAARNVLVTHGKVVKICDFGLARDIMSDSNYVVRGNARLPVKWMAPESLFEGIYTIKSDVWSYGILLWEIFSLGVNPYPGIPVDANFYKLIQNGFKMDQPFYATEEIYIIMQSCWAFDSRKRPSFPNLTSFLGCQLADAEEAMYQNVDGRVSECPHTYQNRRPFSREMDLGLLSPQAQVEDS
UniProt P06241, whole entry, looked up: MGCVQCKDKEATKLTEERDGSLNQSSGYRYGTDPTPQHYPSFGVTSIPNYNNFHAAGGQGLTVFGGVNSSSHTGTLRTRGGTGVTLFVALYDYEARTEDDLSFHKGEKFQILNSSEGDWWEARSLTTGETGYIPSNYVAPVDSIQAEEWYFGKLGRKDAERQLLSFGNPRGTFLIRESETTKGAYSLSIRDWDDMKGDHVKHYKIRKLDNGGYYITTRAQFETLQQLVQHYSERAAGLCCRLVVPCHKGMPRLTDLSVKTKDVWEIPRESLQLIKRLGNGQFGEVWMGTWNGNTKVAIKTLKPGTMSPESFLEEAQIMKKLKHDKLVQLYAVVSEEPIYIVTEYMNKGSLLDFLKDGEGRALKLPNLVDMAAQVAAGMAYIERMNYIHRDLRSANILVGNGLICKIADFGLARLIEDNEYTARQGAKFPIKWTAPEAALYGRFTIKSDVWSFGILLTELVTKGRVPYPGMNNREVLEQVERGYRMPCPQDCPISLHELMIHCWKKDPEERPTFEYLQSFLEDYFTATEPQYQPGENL
UniProt P14616: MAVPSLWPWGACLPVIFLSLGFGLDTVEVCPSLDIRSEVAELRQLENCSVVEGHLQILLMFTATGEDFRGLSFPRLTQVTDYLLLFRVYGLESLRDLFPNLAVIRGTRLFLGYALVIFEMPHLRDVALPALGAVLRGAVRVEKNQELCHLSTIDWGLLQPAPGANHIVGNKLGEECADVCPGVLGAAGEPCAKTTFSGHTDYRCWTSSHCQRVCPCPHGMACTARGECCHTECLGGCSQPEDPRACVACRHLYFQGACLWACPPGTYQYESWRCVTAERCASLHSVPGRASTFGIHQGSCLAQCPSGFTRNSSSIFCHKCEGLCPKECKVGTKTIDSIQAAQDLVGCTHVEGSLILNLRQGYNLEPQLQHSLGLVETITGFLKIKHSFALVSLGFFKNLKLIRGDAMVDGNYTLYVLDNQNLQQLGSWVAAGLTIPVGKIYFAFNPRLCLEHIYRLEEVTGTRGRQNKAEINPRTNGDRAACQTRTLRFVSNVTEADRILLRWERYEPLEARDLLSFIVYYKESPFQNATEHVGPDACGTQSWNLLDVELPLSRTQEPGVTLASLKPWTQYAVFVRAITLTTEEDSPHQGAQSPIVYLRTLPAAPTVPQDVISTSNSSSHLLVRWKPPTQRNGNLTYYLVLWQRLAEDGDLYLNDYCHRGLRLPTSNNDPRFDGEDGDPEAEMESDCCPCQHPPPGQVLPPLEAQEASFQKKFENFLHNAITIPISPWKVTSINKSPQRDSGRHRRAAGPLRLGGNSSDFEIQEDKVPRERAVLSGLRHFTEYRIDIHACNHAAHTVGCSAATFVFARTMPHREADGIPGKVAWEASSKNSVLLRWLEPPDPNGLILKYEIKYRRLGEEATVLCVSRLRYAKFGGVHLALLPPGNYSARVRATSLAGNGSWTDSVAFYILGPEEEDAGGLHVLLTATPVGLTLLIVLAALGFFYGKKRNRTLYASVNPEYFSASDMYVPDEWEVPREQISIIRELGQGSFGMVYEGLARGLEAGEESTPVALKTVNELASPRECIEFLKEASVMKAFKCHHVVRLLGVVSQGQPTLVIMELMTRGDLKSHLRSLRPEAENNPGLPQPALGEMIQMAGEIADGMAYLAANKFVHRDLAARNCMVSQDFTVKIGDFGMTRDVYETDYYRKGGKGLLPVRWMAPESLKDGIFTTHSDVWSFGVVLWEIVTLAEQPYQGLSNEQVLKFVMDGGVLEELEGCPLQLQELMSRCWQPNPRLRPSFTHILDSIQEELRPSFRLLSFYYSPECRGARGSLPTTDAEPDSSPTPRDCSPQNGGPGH
UniProt Q9Y616: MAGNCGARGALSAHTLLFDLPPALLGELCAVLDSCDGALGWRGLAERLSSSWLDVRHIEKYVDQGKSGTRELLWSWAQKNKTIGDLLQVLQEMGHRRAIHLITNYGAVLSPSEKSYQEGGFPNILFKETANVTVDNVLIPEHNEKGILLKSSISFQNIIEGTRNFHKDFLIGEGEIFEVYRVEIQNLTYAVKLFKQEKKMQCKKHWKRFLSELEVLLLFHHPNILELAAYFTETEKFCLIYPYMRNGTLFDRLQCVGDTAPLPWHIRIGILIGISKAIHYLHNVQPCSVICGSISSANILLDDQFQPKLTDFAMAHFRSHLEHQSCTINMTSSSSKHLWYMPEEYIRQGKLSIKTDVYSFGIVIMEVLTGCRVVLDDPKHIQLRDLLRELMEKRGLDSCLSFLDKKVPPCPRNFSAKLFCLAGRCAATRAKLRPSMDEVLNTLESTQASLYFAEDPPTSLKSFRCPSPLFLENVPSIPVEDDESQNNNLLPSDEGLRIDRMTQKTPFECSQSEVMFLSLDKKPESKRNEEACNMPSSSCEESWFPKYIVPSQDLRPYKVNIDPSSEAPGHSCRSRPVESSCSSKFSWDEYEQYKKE
UniProt P53667: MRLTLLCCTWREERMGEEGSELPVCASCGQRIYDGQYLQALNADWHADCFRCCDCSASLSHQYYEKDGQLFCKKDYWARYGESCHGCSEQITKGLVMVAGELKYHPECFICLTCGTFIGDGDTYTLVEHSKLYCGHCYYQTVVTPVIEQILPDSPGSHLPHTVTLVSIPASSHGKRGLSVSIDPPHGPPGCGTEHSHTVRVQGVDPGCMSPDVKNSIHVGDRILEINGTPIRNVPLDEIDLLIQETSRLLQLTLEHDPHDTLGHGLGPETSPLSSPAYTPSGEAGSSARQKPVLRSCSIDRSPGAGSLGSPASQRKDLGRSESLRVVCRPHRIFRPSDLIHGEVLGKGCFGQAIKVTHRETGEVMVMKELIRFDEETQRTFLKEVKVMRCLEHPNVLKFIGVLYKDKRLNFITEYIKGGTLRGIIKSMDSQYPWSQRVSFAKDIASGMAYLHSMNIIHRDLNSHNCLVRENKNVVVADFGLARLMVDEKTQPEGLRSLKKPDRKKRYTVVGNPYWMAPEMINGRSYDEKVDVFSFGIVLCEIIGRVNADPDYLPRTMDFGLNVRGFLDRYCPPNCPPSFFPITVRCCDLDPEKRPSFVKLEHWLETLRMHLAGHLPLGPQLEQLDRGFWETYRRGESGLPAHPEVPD
UniProt P07948: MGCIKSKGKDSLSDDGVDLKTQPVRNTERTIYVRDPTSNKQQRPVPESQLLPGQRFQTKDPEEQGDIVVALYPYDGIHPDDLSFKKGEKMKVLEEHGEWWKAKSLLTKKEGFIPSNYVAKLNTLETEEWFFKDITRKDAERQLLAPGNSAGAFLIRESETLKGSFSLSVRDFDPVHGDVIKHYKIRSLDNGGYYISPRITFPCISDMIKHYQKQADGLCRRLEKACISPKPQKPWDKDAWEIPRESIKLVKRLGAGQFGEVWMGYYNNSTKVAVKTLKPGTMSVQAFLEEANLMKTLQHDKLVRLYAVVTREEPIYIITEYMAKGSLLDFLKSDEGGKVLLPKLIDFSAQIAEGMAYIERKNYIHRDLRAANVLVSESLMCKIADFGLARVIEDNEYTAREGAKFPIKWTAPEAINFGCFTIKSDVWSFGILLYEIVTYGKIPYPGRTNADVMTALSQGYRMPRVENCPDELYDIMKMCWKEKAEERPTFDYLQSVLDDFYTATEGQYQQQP
UniProt P28482, whole entry: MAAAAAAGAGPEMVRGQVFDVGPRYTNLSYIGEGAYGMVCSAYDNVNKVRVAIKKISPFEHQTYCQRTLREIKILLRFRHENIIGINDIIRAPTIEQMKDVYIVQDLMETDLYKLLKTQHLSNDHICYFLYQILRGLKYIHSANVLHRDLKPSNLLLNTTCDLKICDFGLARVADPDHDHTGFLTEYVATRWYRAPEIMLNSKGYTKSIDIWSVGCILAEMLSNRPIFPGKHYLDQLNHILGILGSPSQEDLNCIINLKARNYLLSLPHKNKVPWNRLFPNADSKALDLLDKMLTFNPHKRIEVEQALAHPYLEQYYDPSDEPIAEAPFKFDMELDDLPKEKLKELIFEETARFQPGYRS
UniProt P49137, whole entry, looked up: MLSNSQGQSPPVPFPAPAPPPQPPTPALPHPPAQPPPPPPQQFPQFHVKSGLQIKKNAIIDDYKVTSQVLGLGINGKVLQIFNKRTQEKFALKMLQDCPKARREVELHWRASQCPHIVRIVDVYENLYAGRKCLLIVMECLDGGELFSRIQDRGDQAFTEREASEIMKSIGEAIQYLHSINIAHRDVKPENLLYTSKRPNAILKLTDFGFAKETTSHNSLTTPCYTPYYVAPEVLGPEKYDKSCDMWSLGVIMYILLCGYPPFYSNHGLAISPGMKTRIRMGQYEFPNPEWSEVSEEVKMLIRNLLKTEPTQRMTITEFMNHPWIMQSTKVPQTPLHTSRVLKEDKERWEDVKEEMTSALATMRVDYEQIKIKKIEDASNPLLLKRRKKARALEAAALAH
UniProt Q16620, whole entry, looked up: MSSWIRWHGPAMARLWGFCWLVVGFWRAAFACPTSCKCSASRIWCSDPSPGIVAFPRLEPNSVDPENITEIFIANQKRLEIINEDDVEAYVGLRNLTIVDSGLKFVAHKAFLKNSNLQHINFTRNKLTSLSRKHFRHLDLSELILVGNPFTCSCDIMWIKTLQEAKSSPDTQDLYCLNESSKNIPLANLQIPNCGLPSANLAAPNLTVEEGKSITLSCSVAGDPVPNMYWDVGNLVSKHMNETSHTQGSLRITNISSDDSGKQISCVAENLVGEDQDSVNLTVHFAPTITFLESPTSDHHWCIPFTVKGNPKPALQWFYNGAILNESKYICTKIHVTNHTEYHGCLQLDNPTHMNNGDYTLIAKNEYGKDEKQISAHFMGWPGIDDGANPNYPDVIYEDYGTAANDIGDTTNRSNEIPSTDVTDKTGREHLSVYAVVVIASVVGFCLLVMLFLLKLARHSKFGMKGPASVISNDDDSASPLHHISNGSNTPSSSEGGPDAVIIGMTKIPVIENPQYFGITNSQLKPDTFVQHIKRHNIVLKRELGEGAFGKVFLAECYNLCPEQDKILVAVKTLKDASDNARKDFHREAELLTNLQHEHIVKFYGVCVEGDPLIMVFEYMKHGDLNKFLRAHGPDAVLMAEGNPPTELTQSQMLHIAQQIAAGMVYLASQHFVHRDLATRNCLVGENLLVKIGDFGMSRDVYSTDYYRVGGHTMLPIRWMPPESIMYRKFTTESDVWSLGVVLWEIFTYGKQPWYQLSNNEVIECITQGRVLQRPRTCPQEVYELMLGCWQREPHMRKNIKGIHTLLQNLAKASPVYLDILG

SMILES	number of time points [1]	number of time points [2]	number of time points [3]	number of time points [4]	number of time points [5]	number of time points [6]	number of time points [7]	number of time points [8]	number of time points [9]	number of time points [10]	number of time points [11]	number of time points [12]	number of time points [13]	number of time points [14]	number of time points [15]	number of time points [16]	number of time points [17]	number of time points [18]	number of time points [19]	number of time points [20]
c1ccc(-c2nc(=NCCN3CCOCC3)sn2-c2ccccc2)cc1 [VP3.15 (dihydrobromide)] (10 µM)	0	0	0	0	0	0	0	0	0	0	0	0	0	0	0	0	0	0	0	0
COc1ccc(-c2coc3cc(O)ccc3c2=O)cc1 [Formononetin] (10 µM)	0	1	0	0	0	0	0	0	0	0	0	0	0	0	0	0	0	0	0	0
N#CC(c1ccnc(OCc2ccc(CN3CCOCC3)cc2)n1)c1nc2ccccc2s1 (stereo not given) [Bentamapimod] (2.5 µM)	0	0	0	0	0	0	0	0	0	0	0	0	0	0	0	0	0	0	0	0
Cc1cnc(-c2ccc(-c3ccc(NC(=O)Nc4cccc(C(F)(F)F)c4)cc3F)c3c2C(=O)NC3)[nH]1 (10 µM)	0	0	0	1	0	0	0	0	0	0	0	1	0	0	0	0	0	0	1	0
C=CC(=O)N1CCC[C@H](n2c(=O)n(-c3ccc(Oc4ccccc4)cc3)c3c(N)ncnc32)C1 [ONO-4059 (analog)] (10 µM)	0	0	0	0	0	0	0	0	0	0	0	0	0	0	0	0	0	0	0	0
CCc1ccc(OCC(=O)Nc2ccc(F)c([N+](=O)[O-])c2)cc1 (10 µM)	0	0	0	0	0	0	0	0	0	0	0	0	0	0	0	0	0	0	0	0
CCc1cncnc1N1CCN(Cc2nc3ccc(C(F)(F)F)cc3[nH]2)CC1 (10 µM)	0	0	0	0	0	0	0	0	0	0	0	0	0	0	0	0	0	0	0	0
O=[N+]([O-])c1ccc(Nc2nc(N3CCOCC3)nc(N3CCOCC3)n2)cc1 (10 µM)	0	0	0	0	0	0	0	0	0	0	0	0	0	0	0	0	0	0	0	0
Nc1cccc(-c2cc3c(Oc4cccc(O)c4)ncnc3[nH]2)c1 (10 µM)	1	0	0	1	2	2	1	0	0	2	0	0	0	0	0	0	0	0	2	0
Cc1cc(-c2ccnc(Nc3cnn(C)c3)n2)ccc1CNC(=O)N1CC(OC(C)C)C1 (10 µM)	0	0	0	0	0	0	0	0	0	0	0	0	0	0	0	0	0	0	0	0
C=CC(=O)Nc1cc(-n2c(=O)ccc3cnc4ccc(-c5ccc(NS(C)(=O)=O)cc5)cc4c32)ccc1C (10 µM)	0	0	0	0	0	0	0	0	0	0	0	0	0	0	0	0	0	0	0	0
Cc1cc(Nc2ncnc3ccc(-c4ccc(CNCCS(C)(=O)=O)o4)cc23)ccc1Oc1ccn2ncnc2c1 [ARRY-380 (analog )] (2.5 µM)	0	0	0	0	0	0	0	0	0	0	0	0	0	0	0	0	0	0	0	0
Cc1cccc2c3c(ccc12)C(=O)C1=C(OCC1C)C3=O (stereo not given) [Dihydroisotanshinone I] (2.5 µM)	0	0	0	0	0	0	0	0	0	0	0	0	0	0	0	0	0	0	0	0
C=CCc1ccc(O)c(-c2ccc(O)c(CC=C)c2)c1 [Honokiol] (10 µM)	0	0	0	0	0	0	0	0	0	0	0	0	0	0	0	0	0	0	0	0
COc1ccc(-c2c(C)nn3c(NCCN4CCOCC4)cc(C)nc23)cc1OC (10 µM)	0	0	0	0	0	0	0	0	0	0	0	0	0	0	0	0	0	0	0	0
COc1ncccc1-c1cnn2ccc(N3CCN(C(=O)OC(C)C)CC3)nc12 (10 µM)	0	0	0	0	0	0	0	0	0	0	0	0	0	0	0	0	0	0	0	0
C=CC(=O)Nc1cc(Nc2nccc(-n3cc(CN(C)C)c(-c4ccccc4)n3)n2)c(OC)cc1N1CCOCC1 [Lazertinib] (10 µM)	0	0	0	3	0	0	0	0	0	0	0	0	0	0	0	0	0	0	0	0
Nc1n[nH]c2nc(-c3ccc(NS(=O)(=O)c4cc(Cl)ccc4F)cc3)cnc12 (10 µM)	0	0	0	1	0	0	0	0	0	0	0	0	0	0	0	0	0	0	0	0
NC(=S)n1[nH]c(-c2ccc([N+](=O)[O-])cc2)c(N=Nc2cccc(Cl)c2)c1=O (2.5 µM)	0	0	0	1	0	0	0	0	0	0	0	0	0	0	0	0	0	0	0	0
O=C1NC(=O)C(c2cnc3ccccn23)=C1c1cn2c3c(cc(F)cc13)CNCC2 [GSK-3 inhibitor 1] (2.5 µM)	0	0	0	0	0	0	0	0	0	0	3	0	0	0	0	0	0	0	0	0
CC(=O)N1CCC(c2cc(-c3ccc(NC(=O)c4cccn(-c5ccc(F)cc5)c4=O)cc3F)c3c(N)ncnn23)CC1 (0.5 µM)	0	0	0	0	0	0	0	0	0	0	0	0	0	0	0	0	0	0	0	0
Cc1nc(-c2cnn(C)c2)nc2c1[nH]c1ncc(-c3ccc(N4CCN(C)CC4)cc3)cc12 [GNE 220 (hydrochloride)] (10 µM)	0	0	0	0	0	0	0	0	0	0	0	0	0	0	0	0	0	0	0	0

Grouped by structure, the entries above with a nitro group on carbon (3)
SMILES	number of time points [1]	number of time points [2]	number of time points [3]	number of time points [4]	number of time points [5]	number of time points [6]	number of time points [7]	number of time points [8]	number of time points [9]	number of time points [10]	number of time points [11]	number of time points [12]	number of time points [13]	number of time points [14]	number of time points [15]	number of time points [16]	number of time points [17]	number of time points [18]	number of time points [19]	number of time points [20]
CCc1ccc(OCC(=O)Nc2ccc(F)c([N+](=O)[O-])c2)cc1 (10 µM)	0	0	0	0	0	0	0	0	0	0	0	0	0	0	0	0	0	0	0	0
O=[N+]([O-])c1ccc(Nc2nc(N3CCOCC3)nc(N3CCOCC3)n2)cc1 (10 µM)	0	0	0	0	0	0	0	0	0	0	0	0	0	0	0	0	0	0	0	0
NC(=S)n1[nH]c(-c2ccc([N+](=O)[O-])cc2)c(N=Nc2cccc(Cl)c2)c1=O (2.5 µM)	0	0	0	1	0	0	0	0	0	0	0	0	0	0	0	0	0	0	0	0
